Experimental data: patent US5739334A (Istituto Ricerca Francesco Angelini S.p.A., priority 1992, dated 1998)
Where two headings read alike, the source gives them in different places.

Columns and labels:
[1] = system: alpha 2
[2] = system: serotonin 1
[3] = system: sigma

Structure (SMILES): O=c1n(CCCN2CCN(c3cccc(Cl)c3)CC2)nc2ccccn12 [trazodone]
- % inhibition, alpha 2 ([1]; C = 10^-5 M): 75.1%
- % inhibition, alpha 2 ([1]; C = 10^-7 M): less than 45.0%
- % inhibition, serotonin 1 ([2]; C = 10^-5 M): 79.8%
- % inhibition, serotonin 1 ([2]; C = 10^-7 M): less than 45.0%
- % inhibition, sigma ([3]; C = 10^-5 M): 81.7%
- % inhibition, sigma ([3]; C = 10^-7 M): less than 45.0%
